In patent US20250042957A1 one finds binding data, which are given here for 15 molecules.

Amino acid sequences for entries named in this document (tags omitted). A change or cut given only in a name is not applied to a line headed by its entry. Chains listed by the source or under a name are the forms on record and can include a tag or linker.
VEGF165 (P15692, form named): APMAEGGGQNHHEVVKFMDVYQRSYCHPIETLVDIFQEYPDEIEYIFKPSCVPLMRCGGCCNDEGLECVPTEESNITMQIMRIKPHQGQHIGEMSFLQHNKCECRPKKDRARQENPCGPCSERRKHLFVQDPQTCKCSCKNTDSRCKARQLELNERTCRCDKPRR

Assay [1] addresses VEGF165 (UniProt P15692). The experiment in a line: SPR (ProteOn).
Assay [2] addresses VEGF165 (UniProt P15692). The experiment in a line: screen of 29 designs.
The target in assay [3] is VEGF165 (UniProt P15692). Briefly: ELISA: plate-bound biotinylated VEGF165, His-tagged construct titrated, no soluble VEGF, anti-His-HRP detection. For orientation: ELISA stands for enzyme-linked immunosorbent assay.
In assay [4] the target is VEGF165 (UniProt P15692). Briefly: ELISA, biotinylated VEGF165 on neutravidin plate, anti-His detection; residual binding of the closed form.

These are yes or no findings as the source states them, for the method shown. Some entries that bind do so weakly or less than the wild type.

B1: 2-in-1 DARPin 18 (SEQ ID NO: 11) (designed binder)
chain: DLDKKLLEAARAGQDDEVRILLKAGADVNAKDSTGWTPLHLAAPWGHPEIVEVLLKAGADVNAKDFQGWTPLHLAAAAGHLEIVEVLLKAGADVNAKDVYGWTPLHIAAASGHLEIVEVLLKAGADVNAKDWLGWTPLHLAASHGHLEIVEVLLKAGADVNAQDKSGKTPADLAARAGHQDIAEVLQKAA
B1: the binding entry with VEGF165 [1] and in the assay with VEGF165 [2] was “binds” throughout.

B2: 2-in-1 DARPin 19 (SEQ ID NO: 12) (designed binder)
chain: DLDKKLLEAARAGQDDEVRILLKAGADVNAKDSTGWTPLHLAAPWGHPEIVEVLLKAGADVNAKDFKGWTPLHLAAAAGHLEIVEVLLKAGADVNAKDVYGWTPLHLAAAAGHLEIVEVLLKAGADVNAKDWLGWTPLHLAASHGHLEIVEVLLKAGADVNAQDKSGKTPADLAARAGHQDIAEVLQKAA
Turning to B2, the binding entry in the assay with VEGF165 [1] and with VEGF165 [2] was “binds” each time.

B3: 2-in-1 DARPin 20 (SEQ ID NO: 13) (designed binder)
chain: DLDKKLLEAARAGQDDEVRILLKAGADVNAKDSTGWTPLHLAAPWGHPEIVEVLLKAGADVNAKDFQGWTPLHLAAAAGHLEIVEVLLKAGADVNAKDVYGWTPLHLAAAAGHLEIVEVLLKAGADVNAKDWLGWTPLHLAASHGHLEIVEVLLKAGADVNAQDKSGKTPADLAARAGHQDIAEVLQKAA
With B3, the binding entry in the assay with VEGF165 [1] and in the assay with VEGF165 [2] was “binds” throughout.

B4: 2-in-1 DARPin 13 (SEQ ID NO: 8) (designed binder)
chain: DLDKKLLEAARAGQDDEVRILLKAGADVNAKDSTGWTPLHLAAPWGHPEIVEVLLKAGADVNAKDFYGWTPLHLAAAAGHLEIVEVLLKAGADVNAKDWLGWTPLHLAASHGHLEIVEVLLKAGADVNAQDKSGKTPADLAARAGHQDIAEVLQKAA
For B4, the binding entry in the assay with VEGF165 [1] and with VEGF165 [2] was “binds” throughout.

B5: 2-in-1 DARPin 12 (SEQ ID NO: 7) (designed binder)
chain: DLDKKLLEAARAGQDDEVRILLKAGADVNAKDSTGWTPLHLAAPWGHPEIVEVLLKAGADVNAKDVYGWTPLHLAAAAGHLEIVEVLLKAGADVNAKDWLGWTPLHLAASHGHLEIVEVLLKAGADVNAQDKSGKTPADLAARAGHQDIAEVLQKAA
Regarding B5, the binding entry in the assay with VEGF165 [1] and in the assay with VEGF165 [2] was “binds” each time.

B6: 2-in-1 DARPin 15 (SEQ ID NO: 9) (designed binder)
chain: DLDKKLLEAARAGQDDEVRILLKAGADVNAKDSTGWTPLHLAAPWGHPEIVEVLLKAGADVNAKDFQGWTPLHLAAAAGHLEIVEVLLKAGADVNAKDWLGWTPLHLAASHGHLEIVEVLLKAGADVNAQDKSGKTPADLAARAGHQDIAEVLQKAA
For B6, the binding entry in the assay with VEGF165 [1] and in the assay with VEGF165 [2] was “binds” in each case.

B7: 2-in-1 DARPin 17 (SEQ ID NO: 10) (designed binder)
chain: DLGKKLLQAARAGQLDEVRELLKAGADVNAKDSTGWTPLHLAAPWGHPEIVEVLLKAGADVNAKDFQGWTPLHLAAAAGHLEIVEVLLKAGADVNAKDWLGWTPLHLAASHGHLEIVEVLLKAGADVNAQDKSGKTPADLAARAGHQDIAEVLQKAA
Take B7: the binding result with VEGF165 [1] and with VEGF165 [2] was “binds” in each case.

B8: 2-in-1 DARPin 11 (SEQ ID NO: 6) (designed binder)
chain: DLDKKLLEAARAGQDDEVRILLKAGADVNAKDSTGWTPLHLAAPWGHPEIVEVLLKAGADVNAKDVYGWTPLHIAAASGHLEIVEVLLKAGADVNAKDWLGWTPLHLAASHGHLEIVEVLLKAGADVNAQDKSGKTPADLAARAGHQDIAEVLQKAA
B8: the binding result with VEGF165 [1] and in the assay with VEGF165 [2] was “binds” each time.

B9: Switchdrug DARPin 13-B (designed binder)
chain: MRGSHHHHHHGSDLDKKLLEAARAGQDDEVRILLKAGADVNAKDSTGWTPLHLAAPWGHPEIVEVLLKAGADVNAKDFYGWTPLHLAAAAGHLEIVEVLLKAGADVNAKDWLGWTPLHLAASHGHLEIVEVLLKAGADVNAQDKSGKTPADLAARAGHQDIAEVLQKAAGSPTPTPTTPTPTPTTPTPTPTGSDLGKKLLQAARAGQLDEVRELLKAGADVNAKDQYGRTPLHLAAIKGHLEIVEVLLKAGADVNAKDSLGYTPLHLAAVEGPLEIVEVLLKAGADVNAKDAYGQTPLHIAAAWGHLEIVEVLLKAVADVNAQDKSGKTPADLAARAGHQDIAEVLQKAAGSPTPTPTTPTPTPTTPTPTPTGSDLGQKLLEAAWAGQDDEVRELLKAGADVNAKNSRGWTPLHTAAQTGHLEIFEVLLKAGADVNAKNDKRVTPLHLAAALGHLEIVEVLLKAGADVNARDSWGTTPADLAAKYGHQDIAEVLQKAA
With B9, the binding result in the assay with VEGF165 [3] and with VEGF165 [4] was “binds” in each case.

B10: Switchdrug DARPin 15-B (designed binder)
chain: MRGSHHHHHHGSDLDKKLLEAARAGQDDEVRILLKAGADVNAKDSTGWTPLHLAAPWGHPEIVEVLLKAGADVNAKDFQGWTPLHLAAAAGHLEIVEVLLKAGADVNAKDWLGWTPLHLAASHGHLEIVEVLLKAGADVNAQDKSGKTPADLAARAGHQDIAEVLQKAAGSPTPTPTTPTPTPTTPTPTPTGSDLGKKLLQAARAGQLDEVRELLKAGADVNAKDQYGRTPLHLAAIKGHLEIVEVLLKAGADVNAKDSLGYTPLHLAAVEGPLEIVEVLLKAGADVNAKDAYGQTPLHIAAAWGHLEIVEVLLKAVADVNAQDKSGKTPADLAARAGHQDIAEVLQKAAGSPTPTPTTPTPTPTTPTPTPTGSDLGQKLLEAAWAGQDDEVRELLKAGADVNAKNSRGWTPLHTAAQTGHLEIFEVLLKAGADVNAKNDKRVTPLHLAAALGHLEIVEVLLKAGADVNARDSWGTTPADLAAKYGHQDIAEVLQKAA
With B10, the binding result with VEGF165 [3] and with VEGF165 [4] was “binds” throughout.

B11: Switchdrug DARPin 13-A (designed binder)
chain: MRGSHHHHHHGSDLGKKLLQAARAGQLDEVRELLKAGADVNAKDQYGRTPLHLAAIKGHLEIVEVLLKAGADVNAKDSLGYTPLHLAAVEGPLEIVEVLLKAGADVNAKDAYGQTPLHIAAAWGHLEIVEVLLKAVADVNAQDKSGKTPADLAARAGHQDIAEVLQKAAGSPTPTPTTPTPTPTTPTPTPTGSDLGQKLLEAAWAGQDDEVRELLKAGADVNAKNSRGWTPLHTAAQTGHLEIFEVLLKAGADVNAKNDKRVTPLHLAAALGHLEIVEVLLKAGADVNARDSWGTTPADLAAKYGHQDIAEVLQKAAGSPTPTPTTPTPTPTTPTPTPTGSDLDKKLLEAARAGQDDEVRILLKAGADVNAKDSTGWTPLHLAAPWGHPEIVEVLLKAGADVNAKDFYGWTPLHLAAAAGHLEIVEVLLKAGADVNAKDWLGWTPLHLAASHGHLEIVEVLLKAGADVNAQDKSGKTPADLAARAGHQDIAEVLQKAA
Turning to B11, the binding entry with VEGF165 [3] and with VEGF165 [4] was “binds” each time.

B12: Switchdrug DARPin 15-A (designed binder)
chain: MRGSHHHHHHGSDLGKKLLQAARAGQLDEVRELLKAGADVNAKDQYGRTPLHLAAIKGHLEIVEVLLKAGADVNAKDSLGYTPLHLAAVEGPLEIVEVLLKAGADVNAKDAYGQTPLHIAAAWGHLEIVEVLLKAVADVNAQDKSGKTPADLAARAGHQDIAEVLQKAAGSPTPTPTTPTPTPTTPTPTPTGSDLGQKLLEAAWAGQDDEVRELLKAGADVNAKNSRGWTPLHTAAQTGHLEIFEVLLKAGADVNAKNDKRVTPLHLAAALGHLEIVEVLLKAGADVNARDSWGTTPADLAAKYGHQDIAEVLQKAAGSPTPTPTTPTPTPTTPTPTPTGSDLDKKLLEAARAGQDDEVRILLKAGADVNAKDSTGWTPLHLAAPWGHPEIVEVLLKAGADVNAKDFQGWTPLHLAAAAGHLEIVEVLLKAGADVNAKDWLGWTPLHLAASHGHLEIVEVLLKAGADVNAQDKSGKTPADLAARAGHQDIAEVLQKAA
Turning to B12, the binding entry in the assay with VEGF165 [3] and in the assay with VEGF165 [4] was “binds” in each case.

B13: Switchdrug DARPin 17-A (designed binder)
chain: MRGSHHHHHHGSDLGKKLLQAARAGQLDEVRELLKAGADVNAKDQYGRTPLHLAAIKGHLEIVEVLLKAGADVNAKDSLGYTPLHLAAVEGPLEIVEVLLKAGADVNAKDAYGQTPLHIAAAWGHLEIVEVLLKAVADVNAQDKSGKTPADLAARAGHQDIAEVLQKAAGSPTPTPTTPTPTPTTPTPTPTGSDLGQKLLEAAWAGQDDEVRELLKAGADVNAKNSRGWTPLHTAAQTGHLEIFEVLLKAGADVNAKNDKRVTPLHLAAALGHLEIVEVLLKAGADVNARDSWGTTPADLAAKYGHQDIAEVLQKAAGSPTPTPTTPTPTPTTPTPTPTGSDLGKKLLQAARAGQLDEVRELLKAGADVNAKDSTGWTPLHLAAPWGHPEIVEVLLKAGADVNAKDFQGWTPLHLAAAAGHLEIVEVLLKAGADVNAKDWLGWTPLHLAASHGHLEIVEVLLKAGADVNAQDKSGKTPADLAARAGHQDIAEVLQKAA
In the case of B13, the binding entry in the assay with VEGF165 [3] and with VEGF165 [4] was “binds” throughout.

B14: Switchdrug DARPin 18-A (designed binder)
chain: MRGSHHHHHHGSDLGKKLLQAARAGQLDEVRELLKAGADVNAKDQYGRTPLHLAAIKGHLEIVEVLLKAGADVNAKDSLGYTPLHLAAVEGPLEIVEVLLKAGADVNAKDAYGQTPLHIAAAWGHLEIVEVLLKAVADVNAQDKSGKTPADLAARAGHQDIAEVLQKAAGSPTPTPTTPTPTPTTPTPTPTGSDLGQKLLEAAWAGQDDEVRELLKAGADVNAKNSRGWTPLHTAAQTGHLEIFEVLLKAGADVNAKNDKRVTPLHLAAALGHLEIVEVLLKAGADVNARDSWGTTPADLAAKYGHQDIAEVLQKAAGSPTPTPTTPTPTPTTPTPTPTGSDLDKKLLEAARAGQDDEVRILLKAGADVNAKDSTGWTPLHLAAPWGHPEIVEVLLKAGADVNAKDFQGWTPLHLAAAAGHLEIVEVLLKAGADVNAKDVYGWTPLHIAAASGHLEIVEVLLKAGADVNAKDWLGWTPLHLAASHGHLEIVEVLLKAGADVNAQDKSGKTPADLAARAGHQDIAEVLQKAA
In the case of B14, the binding entry in the assay with VEGF165 [3] and with VEGF165 [4] was “binds” in each case.

B15: Switchdrug DARPin 18-B (designed binder)
chain: MRGSHHHHHHGSDLDKKLLEAARAGQDDEVRILLKAGADVNAKDSTGWTPLHLAAPWGHPEIVEVLLKAGADVNAKDFQGWTPLHLAAAAGHLEIVEVLLKAGADVNAKDVYGWTPLHIAAASGHLEIVEVLLKAGADVNAKDWLGWTPLHLAASHGHLEIVEVLLKAGADVNAQDKSGKTPADLAARAGHQDIAEVLQKAAGSPTPTPTTPTPTPTTPTPTPTGSDLGKKLLQAARAGQLDEVRELLKAGADVNAKDQYGRTPLHLAAIKGHLEIVEVLLKAGADVNAKDSLGYTPLHLAAVEGPLEIVEVLLKAGADVNAKDAYGQTPLHIAAAWGHLEIVEVLLKAVADVNAQDKSGKTPADLAARAGHQDIAEVLQKAAGSPTPTPTTPTPTPTTPTPTPTGSDLGQKLLEAAWAGQDDEVRELLKAGADVNAKNSRGWTPLHTAAQTGHLEIFEVLLKAGADVNAKNDKRVTPLHLAAALGHLEIVEVLLKAGADVNARDSWGTTPADLAAKYGHQDIAEVLQKAA
Consider B15, for which the binding entry with VEGF165 [3] and with VEGF165 [4] was “binds” in each case.
